Experimental findings from PMC5323164 are described below.

The chains behind the UniProt entries cited, without tags or fusion partners. Residues count along the entry.
UniProt Q9BZS1, residues 1-417: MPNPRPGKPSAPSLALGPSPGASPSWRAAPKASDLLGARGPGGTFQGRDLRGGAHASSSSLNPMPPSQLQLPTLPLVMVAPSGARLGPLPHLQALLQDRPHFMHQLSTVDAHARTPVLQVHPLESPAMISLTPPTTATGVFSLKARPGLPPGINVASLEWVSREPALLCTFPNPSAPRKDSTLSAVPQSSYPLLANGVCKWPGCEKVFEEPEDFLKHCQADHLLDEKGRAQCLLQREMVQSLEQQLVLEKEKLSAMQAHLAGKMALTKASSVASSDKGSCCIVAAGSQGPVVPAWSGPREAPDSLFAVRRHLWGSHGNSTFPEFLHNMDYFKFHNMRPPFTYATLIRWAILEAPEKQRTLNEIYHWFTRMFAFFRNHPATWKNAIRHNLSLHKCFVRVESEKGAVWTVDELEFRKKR
UniProt Q16665: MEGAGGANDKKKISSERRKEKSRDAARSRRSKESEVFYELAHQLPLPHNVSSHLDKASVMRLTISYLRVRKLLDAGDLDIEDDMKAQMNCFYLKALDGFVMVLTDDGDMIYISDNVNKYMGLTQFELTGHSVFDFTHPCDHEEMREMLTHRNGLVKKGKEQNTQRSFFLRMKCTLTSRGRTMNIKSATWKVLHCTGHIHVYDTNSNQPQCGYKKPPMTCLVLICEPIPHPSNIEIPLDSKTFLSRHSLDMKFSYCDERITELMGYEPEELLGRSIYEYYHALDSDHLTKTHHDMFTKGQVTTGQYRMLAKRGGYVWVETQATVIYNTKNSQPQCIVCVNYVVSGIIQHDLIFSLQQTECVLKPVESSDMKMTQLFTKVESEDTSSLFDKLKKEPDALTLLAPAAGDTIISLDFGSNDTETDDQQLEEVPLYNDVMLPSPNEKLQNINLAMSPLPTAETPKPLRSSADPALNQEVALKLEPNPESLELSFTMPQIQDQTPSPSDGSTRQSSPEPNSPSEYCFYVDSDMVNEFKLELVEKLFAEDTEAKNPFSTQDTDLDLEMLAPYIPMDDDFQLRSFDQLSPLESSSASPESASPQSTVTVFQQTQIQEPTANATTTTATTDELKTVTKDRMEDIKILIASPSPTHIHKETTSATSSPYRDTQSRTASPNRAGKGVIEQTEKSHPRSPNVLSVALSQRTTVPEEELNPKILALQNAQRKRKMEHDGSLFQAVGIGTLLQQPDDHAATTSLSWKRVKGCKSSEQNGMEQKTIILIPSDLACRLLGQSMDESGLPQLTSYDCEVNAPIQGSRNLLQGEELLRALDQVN

Experiment [1] deals with forkhead box P3 (Foxp3) protein (human (endogenous in T24-B and HeLa)) (UniProt Q9BZS1). Nature of the experiment: co-IP; lysates of T24-B cells (the text also names HeLa) kept in normoxia or hypoxia (1% O2) for the indicated times; immunoprecipitated with anti-Foxp3 antibody, western blot for Foxp3 and HIF-1α.
In experiment [2] the target is Foxp3 expressed from plasmid pCMV3-N-HA-Foxp3 (UniProt Q9BZS1). Nature of the experiment: co-IP; T24-P cells transfected with Foxp3 plasmid or control, with or without MG132; lysates immunoprecipitated with anti-Foxp3 antibody, western blot for Foxp3 and HIF-1α. A general note: In western blotting, separated proteins are transferred to a membrane and probed.

These are yes or no findings as the source states them, for the method shown. Binding seen in cells or lysates may run through a third protein. Some results given as binding are weak or reduced against the parent protein; the word gives no strength.

Turning to “Hypoxia-inducible factor-1 alpha (HIF-1α) protein (from UniProt Q16665 1-826)”, the binding entry in experiment [1] and in experiment [2] was “binds” each time.
